Results reported in PMC8790872.
No constants are given. Whether binding was seen depends on the method and setting. In cells and extracts the contact can be indirect. Some binding calls cover weakened binding; strength is not graded here.

Biological target: T1, Nuclear factor of activated T cell 1 (NFAT1) (human (in 786-O and ACHN cells)) (UniProt Q13469)
T1 sequence: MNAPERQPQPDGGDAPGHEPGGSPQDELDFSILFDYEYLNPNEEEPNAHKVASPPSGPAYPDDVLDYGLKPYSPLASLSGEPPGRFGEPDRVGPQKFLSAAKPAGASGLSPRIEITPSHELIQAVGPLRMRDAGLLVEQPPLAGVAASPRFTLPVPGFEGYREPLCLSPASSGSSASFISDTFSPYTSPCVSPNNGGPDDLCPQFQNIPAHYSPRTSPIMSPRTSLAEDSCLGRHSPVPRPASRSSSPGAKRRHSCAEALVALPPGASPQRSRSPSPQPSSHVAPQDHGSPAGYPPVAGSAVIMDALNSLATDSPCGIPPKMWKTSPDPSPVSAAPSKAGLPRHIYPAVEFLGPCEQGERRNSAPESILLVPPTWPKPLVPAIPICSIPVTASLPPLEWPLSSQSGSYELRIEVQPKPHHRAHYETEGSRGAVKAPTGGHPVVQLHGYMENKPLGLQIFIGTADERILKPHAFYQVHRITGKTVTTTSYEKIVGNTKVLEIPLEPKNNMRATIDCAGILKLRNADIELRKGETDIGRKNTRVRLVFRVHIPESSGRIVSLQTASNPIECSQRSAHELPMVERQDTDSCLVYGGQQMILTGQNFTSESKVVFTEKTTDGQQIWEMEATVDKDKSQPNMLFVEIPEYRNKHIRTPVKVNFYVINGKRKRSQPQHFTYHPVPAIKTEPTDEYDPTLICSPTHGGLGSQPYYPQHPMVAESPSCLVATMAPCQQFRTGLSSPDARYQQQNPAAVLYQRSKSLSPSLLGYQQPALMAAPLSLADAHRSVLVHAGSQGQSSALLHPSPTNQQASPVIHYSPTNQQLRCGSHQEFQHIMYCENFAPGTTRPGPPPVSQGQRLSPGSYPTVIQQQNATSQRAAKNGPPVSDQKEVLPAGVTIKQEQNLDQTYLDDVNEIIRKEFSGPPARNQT
Assay: co-IP; lysates of renal cancer cells (786-O, ACHN); antibodies listed for IP: NFAT1 1:50, GSK-3β 1:50, Myc tag 1:50; detailed methods in the supplementary information

binding: binds
Substance: F-box and WD repeat domain containing 7 (FBW7) (from UniProt Q969H0-1 1-707)
